B1: Anti-IL-6 Ab BA808 (antibody, V domains shown)
VH: QVQLVQSGAEVKKPGASVKVSCKASGFTFSSFAMSWIRQSPSRGLEWLGEISSGGSYTYYPDTVTGRFTISRDNAKNSLYLQMNSLRAEDTAVYYCARGLWGYYALDYWGQG
VL: EIVLTQSPATLSVSPGERATLSCSASSSVSYMYWYLQKPGQSPQLLIYDTSNLASGIPPRFSGSGYGTDFTLTINNIESEDAAYYFCQQWSGYPYTFGQG
notes: Humanized monoclonal antibody
B2: Anti-IL-6 Ab BA802 (antibody, V domains shown)
VH: B1 VH
VL: EIVLTQSPDFQSVTPKEKVTITCSASSSVSYMYWYLQKPGQSPQLLIYDTSNLASGVPSRFSGSGSGTDFTLTISSLQPEDFATYYCQQWSGYPYTFGQG
notes: Humanized monoclonal antibody
B3: Anti-IL-6 Ab BA840 (antibody, V domains shown)
VH: B1 VH with S40P, S42G, R43K, L48I
VL: B1 VL with A9D, T10F, L11Q, S14T, G16K, R18K, A19V, L21I, S22T
notes: Humanized monoclonal antibody
B4: Anti-IL-6 Ab BA848 (antibody, V domains shown)
VH: B1 VH with Q1E, I37V, S40A, S42G, R43Q, L48M
VL: AIQLTQSPSSLSASVGDRVTITCSASSSVSYMYWYQQKPGQAPRLLIYDTSNLASGIPPRFSGSGYGTDFTLTINNIESEDAAYYFCQQWSGYPYTFGQG
notes: Humanized monoclonal antibody
B5: Anti-IL-6 Ab BA939 (antibody, V domains shown)
VH: B1 VH with I37V, S40A, S42G, R43Q, L48M
VL: B4 VL with A1D, L4M
notes: Humanized monoclonal antibody
B6: Anti-IL-6 Ab BA890 (antibody, V domains shown)
VH: B1 VH with S40P, S42G, R43K, L48I
VL: B4 VL
notes: Humanized monoclonal antibody
B7: BA399_CPS_07 (antibody, V domains shown)
VH: B1 VH with G26H, A33S, L100Q
VL: B4 VL with D49S, S51L
B8: BA399_CPS_08 (antibody, V domains shown)
VH: B1 VH with A33S, V64K
VL: B4 VL with S24Y, Q89D
B9: Clone BA399-09 (antibody, V domains shown)
VH: B1 VH with A33S, T58H, L100Q
VL: B4 VL with S24Y, S51L
notes: also called BA399-9; BA399 clone #9
B10: BA399_CPS_10 (antibody, V domains shown)
VH: B1 VH with G26H, A33S, T58H, L100Q
VL: B4 VL with S24Y, S51L
notes: also called Clone BA399-10; BA399_10

The chains behind the UniProt entries cited, without tags or fusion partners. Residues count along the entry.
UniProt P05231, residues 30-212: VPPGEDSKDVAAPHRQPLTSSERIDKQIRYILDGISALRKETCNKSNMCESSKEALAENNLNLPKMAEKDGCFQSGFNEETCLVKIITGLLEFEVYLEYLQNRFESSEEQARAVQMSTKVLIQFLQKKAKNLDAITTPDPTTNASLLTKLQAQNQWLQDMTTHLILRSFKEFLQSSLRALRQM

Substitutions are numbered along the chain they refer to. These are yes or no findings as the source states them, for the method shown. Some entries that bind do so weakly or less than the wild type.

One assay concerns the target T1, human IL-6 (Interleukin-6) (human, UniProt P05231 30-212).
T1 construct: also called 001 IL-6 antigen
Briefly: competition ELISA on plate-coated IL-6; competitor of biotinylated 001. A general note: In an ELISA, binding on a coated surface is turned into a signal by an enzyme label.
In the case of B1, the binding entry is “binds”.

On to B2, for which the binding entry is reported as “binds”.

For the molecule B3, the binding entry is “binds”.

On to B4, for which the binding result is reported as “binds”.

As to B5, the binding result was “binds”.

As for B6, the binding entry is “binds”.

A further assay deals with T1, human IL-6 (Interleukin-6). Briefly: specific activity: affinity ELISA on IL-6 divided by quantitation ELISA, normalized to BA399 = 1. Here is the method: 200 μl washing solution (0.05% Tween-20 in PBS) was added and shaken at 200 RPM for 5 min at room temperature. The plates were emptied and residual liquid tapped out on paper towels. 200 μl blocking solution (2% Carnation milk in PBS) was added and shaken at 200 RPM for one hour at room temperature. Plates were emptied and residual liquid tapped out on paper towels. 100 μl of diluted samples for ELISA was used. The samples were shaken at 200 RPM for one hour at room temperature; plates emptied and residual liquid tapped out on paper towels. 200 μl washing solution (0.05% Tween-20 in PBS) was added, shaken at 200 RPM for 5 min at room temperature; plates emptied and residual liquid tapped out on paper towels. This process was repeated three times. 100 μl of 1:2500 dilution of anti-human IgG conjugated with HRP diluted in block solution (2% Carnation milk in PBS) was added for 001 samples. 100 μl of 1:2500 dilution of anti-rabbit IgG conjugated with HRP diluted in block solution (2% Carnation milk in PBS) was added for control antibody. The contents were shaken at 200 RPM for one hour at room temperature, plates emptied and residue liquid tapped out on paper towels. 200 μl washing solution (0.05% Tween-20 in PBS) was added, shaken at 200 RPM for 5 min at room temperature; plates emptied and residual liquid tapped out on paper towels. This process was repeated three times. 100 μl TMB substrate solution was added, and incubated at room temperature. The reaction was stopped with 1 N HCl, and the plate read at 450 nm.
This ELISA was used for determining the expression level of antibodies in cell culture supernatant. […] Covered with plate sealer and incubated at 4° C. overnight. Emptied plate and tapped out residual liquid on paper towels. Added 200 μl washing solution (0.05% Tween-20 in PBS). Shaken at 200 RPM for 5 min at room temperature. Emptied plate and tapped out residual liquid on paper towels. Added 200 μl blocking solution (2% Carnation milk in PBS). Shaken at 200 RPM for one hour at room temperature. Emptied plate and tapped out residual liquid on paper towels. Used 100 μl of diluted sample for ELISA. 20 ng/ml of human IgG and 1:2 dilution thereafter was used for standards.
Take B7: the binding result is “binds”.

In the case of B8, the binding result is given as “binds”.

B9: the binding result was “binds”.

For B10, the binding result is listed as “binds”.

A further assay has as its target T1, human IL-6 (Interleukin-6). Briefly: competition ELISA: human IL-6 coated at 0.2 µg/ml, unlabelled antibody titrated against 0.05 µg/ml biotinylated BA001, anti-biotin-HRP, OD450.
As for B1, the binding entry is recorded as “binds”.

With B2, the binding entry is reported as “binds”.

With B3, the binding result is “binds”.

As to B4, the binding entry was “binds”.

As for B6, the binding result was “binds”.
